From PubChem BioAssay AID2685 (National Center for Advancing Translational Sciences (NCATS), 2010)
Screen size: about 320,000 compounds; about 2,100 (0.66%) were called active. The inconclusive results got no clear call from the source; some entries with a clear call stand among them for comparison. The call rests on the fitted dose curve; in most records, active means well fitted inhibition curve with a large enough effect in the signal ratio, with a control signal flat (not every such curve was filed as active); inconclusive means small, poorly fitted or top-dose-only effect, or effect the other way, or a change in a side signal; inactive means flat fitted curve, though single readings scatter; the % refers to the signal ratio. Potencies beside an inconclusive call are fits to weak or partial responses and may not hold up.

Experiment: qHTS Assay for Lipid Storage Modulators in Drosophila S3 Cells
Details: BODIPY lipid droplet fluorescence, 18-24 h, cells fed with added oleic acid; lipid storage change, negative = inhibition: at 46.1 µM (top of the series) unless noted
Procedure, shortened: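 Laser-scanning cytometry quantifies lipid droplet accumulation (500–530 nm total intensity; droplet/cell object ratio) in oleic acid-fed (400 uM added) Drosophila S3 cells treated with a concentration series. 20 uM Triacsin C defined 100% inhibition.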
On the % scale 0 is the no-effect control and ±100 the full control effect; potency means the concentration at half of the fitted maximal effect.

Row | Compound | lipid storage change, negative = inhibition | Potency
1 | COc1ccc(Nc2nc(Cl)c(C=O)s2)cc1 | inconclusive: 15.7% | 
2 | COc1ccccc1-c1nc(-c2ccc(Br)cc2)no1 | inconclusive: -21.7% | 
3 | COc1ccc(S(=O)(=O)N(CC(=O)NCC2CCCO2)Cc2ccccc2)cc1C (centres undefined) |  | inconclusive: 29.1 µM [activator, single point]
4 | C[C@H](NC(=O)c1ccccc1Cl)C(=O)OCc1cn2cc(Cl)ccc2n1 |  | inconclusive: 9.2 µM [activator, partial curve]
5 | CC(=O)NCCc1ccc(S(=O)(=O)N2CCN(c3nc(-c4ccccc4)c(C)s3)CC2)cc1 |  | inconclusive: 20.6 µM [falling, single point]
6 | CCN1C(=O)C2(C(C(=O)c3cc4ccccc4o3)=C(O)C(=O)N2CCCN2CCOCC2)c2ccccc21 (centres undefined) | inconclusive: -28.6% | 
7 | CN(C)S(=O)(=O)c1ccc(Cl)c(NC(=O)CN2C(=O)NC3(CCc4ccccc43)C2=O)c1 (centres undefined) |  | inconclusive: 1.84 µM [activator, partial curve]
8 | COc1ccc(Cl)cc1NC(=O)C(C)OC(=O)Cn1cc(C(F)(F)F)ccc1=O (centres undefined) |  | inconclusive: 6.51 µM [falling, single point]
9 | Nc1cc(=O)[nH]c(SCC(=O)Nc2ccc([N+](=O)[O-])cc2)n1 |  | inconclusive: 6.51 µM [falling, single point]
10 | Cc1cc(NC(=O)Nc2cccc3ccccc23)no1 | inconclusive: 18.8% | inconclusive: 4.11 µM [activator, partial curve]
11 | Cc1cccc(N(C)S(=O)(=O)c2ccc(-c3cnc(C4CC4)o3)cc2)c1 | inconclusive: -115% | 
12 | COc1ccc(OCC(=O)Nc2nccs2)cc1 | inconclusive: 32.8% | 
13 | Cn1cc(C(=O)C(=O)NCCc2ccccc2)c2ccccc21 | inconclusive: -23.2% | 
14 | O=C(NC(=S)Nc1ccccc1)c1cccs1 | inconclusive: 378% | 
15 | C1CSC2(N1)C1CC3CC2CC(C1)C31NCCS1 (centres undefined) | inconclusive: 3.07% | 
16 | O=C(c1cccc(Cl)c1)N1CCN(C2CCCCCC2)CC1 | inconclusive: 1.23% | 
17 | CC1CCCC(C)N1C(=O)COC(=O)C1CCN(S(=O)(=O)c2ccc3c(c2)OCCO3)CC1 (centres undefined) | inconclusive: 15% | 
18 | CCCNC(=O)NC(C)C12CC3CC(CC(C3)C1)C2 (centres undefined) |  | inconclusive: 1.03 µM [falling, partial curve]
19 | Cc1cc(SCC(=O)N/N=C/c2ccccc2C(=O)O)c(C)cc1Br | inconclusive: 169% | 
20 | CC1=C(C(=O)N(C)C)C(c2ccc(Cl)c(Cl)c2)NC(=O)N1 (centres undefined) |  | active: 3.66 µM
21 | CC1CC(Nc2ccccc2)c2ccccc2N1C(=O)c1ccco1 (centres undefined) | inconclusive: 29.5% | 
22 | O=C(CSC1=NCCS1)N1CCN(c2ccc(Cl)cc2)CC1 | inactive: -5.89% | 
23 | COc1cccc(CC2(CO)CCCN(Cc3ccccc3Cl)C2)c1 (centres undefined) | inconclusive: -16.5% | 
24 | CC(C)c1ccc(/C=N/NC(=O)c2cccc(Cl)c2)cc1 | inconclusive: -1.68% | 
25 | CCN(C(=O)COc1ccccc1)C1CCCCC1 | inconclusive: 20.3% | 
26 | CC(C)(C)OC(=O)N1CCC(CNC(=O)c2ccc(F)cc2F)CC1 |  | inconclusive: 18.4 µM [falling, partial curve, poor fit]

Row | Compound | lipid storage change, negative = inhibition | Potency
27 | COc1cc(NC(=O)c2cc3ccccc3o2)ccc1NC(=O)c1ccco1 |  | active: 0.58 µM
28 | CCOC(=O)Cc1csc(NC(=O)C2CCCCC2C(=O)O)n1 (centres undefined) | inconclusive: -100% | 
29 | O=C(O)CN1C(=O)C(=O)N(Cc2ccc(C(F)(F)F)cc2)C1=O | inconclusive: 0.459% | 
30 | O=C(COc1ccc(Br)cc1)OCc1nnc(-c2ccccc2)o1 |  | inconclusive: 0.0046 µM [falling, full curve, poor fit]
31 | CSCCC(NC=C1C(=O)OC(C)(C)OC1=O)C(=O)O (centres undefined) | inconclusive: 23.1% | 
32 | O=C(NCC1OCCCN1S(=O)(=O)c1cc(F)ccc1F)C(=O)NC1CCCCCC1 (centres undefined) |  | active: 4.61 µM
33 | Cc1n[nH]c(=O)nc1NCCN(C)C | inconclusive: 2.57% | 
34 | O=C(NCc1nnc2c(C(F)(F)F)cc(Cl)cn12)c1ccc2c(c1)OCO2 |  | inconclusive: 0.731 µM [falling, single point]
35 | COc1ccccc1-n1cnnc1SCC(=O)Nc1cc(C(C)(C)C)nn1-c1ccccc1 | inconclusive: 12.7% | 
36 | CC[C@@]12C(=O)N(c3ccc(C)cc3)C(=O)N1[C@H](c1ccc(Br)cc1)[C@@H]1C(=O)N(C(C)(C)C)C(=O)[C@@H]12 | inconclusive: 14.3% | 
37 | CC(C)(O)c1[nH]c2cc(F)ccc2c1C(C)(C)O |  | inconclusive: 29.1 µM [activator, single point]
38 | CCn1c(SCC(=O)Nc2ccc3c(c2)OCCO3)nnc1-c1ccncc1 | inconclusive: 335% | 
39 | Cc1cc(C)c(C#N)c(SCc2nc3ccccc3c(=O)[nH]2)n1 | inconclusive: 8.57% | 
40 | CCC(C)N(C(=O)COC(=O)/C=C/c1ccc(O)c(OC)c1)C1CCS(=O)(=O)C1 (centres undefined) | inconclusive: 60% | 
41 | O=C(CSc1nc(=O)n2ccccc2n1)NCc1ccccc1Cl | inconclusive | 
42 | COc1ccc(C2(O)CN(c3ccccc3)C3=[N+]2CCS3)cc1OC (centres undefined) |  | inconclusive: 2.06 µM [activator, partial curve]
43 | COCCn1c(N)c(N(Cc2ccccc2)C(=O)CSCC(=O)Nc2ccc(OC)cc2)c(=O)[nH]c1=O | inconclusive: 18.8% | 
44 | O=C(O)C1CC(=O)N(CCc2ccc(F)cc2)C1 (centres undefined) |  | inconclusive: 0.082 µM [activator, full curve, poor fit]
45 | COc1cccc(C(=O)N2CCN(Cc3ccc4c(c3)OCO4)CC2)c1OC | inconclusive: 7.87% | 
46 | COc1ccc(-c2cnn(C3CCS(=O)(=O)C3)c2N)cc1 (centres undefined) |  | inconclusive: 7.31 µM [activator, partial curve]
47 | Cc1ccnc(Sc2ncccc2[N+](=O)[O-])n1 |  | active: 29.1 µM
48 | Cn1nc([N+](=O)[O-])c(C(C#N)c2nc3ccccc3n2C)c(Cl)c1=O (centres undefined) | inconclusive: 44% | 
49 | CCOC(=O)CC(Nc1nc(N2CCOCC2)nc(N2CCOCC2)n1)c1ccccc1Cl (centres undefined) | inconclusive: -3.26% | 
50 | COc1ccc2cc(C(=O)Nc3ccc(O)cc3)sc(=O)c2c1OC | inconclusive: 34.3% | 
51 | CSc1ccc(CN2CCC(n3nccc3NC(=O)CCCc3ccccc3)CC2)cc1 |  | inconclusive: 6.51 µM [activator, single point]
52 | CC(C)(C)CC(=O)N1CCN(c2ccc(S(=O)(=O)N3CCOCC3)cc2[N+](=O)[O-])CC1 | inconclusive: -69.1% | 

Row | Compound | lipid storage change, negative = inhibition | Potency
53 | O=C(CN(C(=O)CCC(=O)Nc1ccccn1)c1cccc(F)c1)NCc1ccc(F)cc1 | inconclusive: 20.1% | 
54 | O=C(Nc1cccc(Cl)c1)c1ccc2c(=O)n3c(nc2c1)CCCCC3 | inactive: 16% | 
55 | O=C(NC1CCN(S(=O)(=O)c2ccccc2F)CC1)c1ccco1 |  | inconclusive: 29.1 µM [falling, single point]
56 | Nc1nc(N)nc(-c2ccccc2)n1 | inconclusive: 20.4% | 
57 | CCCCN(C(=O)c1cc2c(s1)CCCC2)c1c(N)n(CCC)c(=O)[nH]c1=O | inconclusive: 15.6% | 
58 | CCCCn1c(N)c(N(CCOC)C(=O)COC(=O)c2cc(CC)c(C)s2)c(=O)[nH]c1=O | inconclusive: -25.9% | 
59 | COc1ccc(NCc2ccsc2)cc1 |  | inconclusive: 29.1 µM [activator, single point]
60 | O=S(=O)(NCCc1cn2ccccc2n1)c1cccs1 | inconclusive: 2.29% | 
61 | CCOc1ccc(/C=C/C2=CC(C)(C)NC(=S)N2)cc1 | inconclusive: 0.345% | 
62 | COc1ccc(C2CC(c3ccccc3)Nc3ncnn32)cc1 (centres undefined) | inconclusive: 29.1% | 
63 | COc1cccc(C2C(C#N)=C(N)Oc3cc(C)[nH]c(=O)c32)c1OC (centres undefined) | inconclusive: -33.5% | 
64 | COc1ccccc1-c1csc(NC(=O)c2cc(-c3cccs3)nc3ccccc23)n1 | inconclusive: 31% | 
65 | O=C(NNC(=O)c1ccccc1Cl)c1ccc(-n2cncn2)c([N+](=O)[O-])c1 | inconclusive: -18.5% | 
66 | COc1ccc(-c2noc(=O)n2Cc2ccccc2F)cc1 | inconclusive: 8.07% | 
67 | Cc1ccc2cc(CN(c3ccccc3C)S(=O)(=O)c3ccccc3)c(=O)[nH]c2c1 |  | inconclusive: 0.231 µM [falling, full curve, poor fit]
68 | Cc1ccc(C(=O)Nc2nnc(S(=O)(=O)N3CCOCC3)s2)cc1 | inconclusive: 29.1% | 
69 | Cc1cc(C)c(C)c(S(=O)(=O)Nc2ccc(O)cc2)c1C | inconclusive: 20.6% | 
70 | Cc1cc(C(=O)N2CCCC(N3CCN(c4ccccc4C)CC3)C2)n(C)n1 (centres undefined) | inconclusive: 1.28% | 
71 | CCCCC(=O)NC1(C(F)(F)F)C(=O)N(Cc2ccco2)C(C)=C1C(=O)OC (centres undefined) | inconclusive: 16.3% | 
72 | Cc1cccc(OCC(=O)NCCNC(=O)c2ccco2)c1 |  | inconclusive: 25.9 µM [activator, single point]
73 | CSCCNC(=O)c1ccc(OC2CCN(S(=O)(=O)N(C)C)CC2)cc1 | inconclusive: 12.4% | 
74 | Cc1cc(=O)[nH]c2c(C)c(N)ccc12 |  | inconclusive: 9.2 µM [rising, partial curve]
75 | COc1ccc(N(CC(=O)Nc2ccc(F)c(F)c2)S(=O)(=O)c2c(C)[nH]c(=O)[nH]c2=O)cc1 | inconclusive: 57.8% | 
76 | COc1cccc(NC(=O)Cn2cc(C=O)c3ccccc32)c1 | inconclusive: -26.9% | 
77 | c1ccc(-c2cn3c(n2)CCc2ccc4cccnc4c2-3)cc1 |  | inconclusive: 29.1 µM [activator, partial curve, poor fit]
78 | COc1ccc(-c2noc(C(C)NS(=O)(=O)c3ccc(NC(C)=O)cc3)n2)cc1 (centres undefined) | inconclusive: 188% | 

Five records drawn at random from those above, as already listed:
Row | Compound | lipid storage change, negative = inhibition | Potency
66 | COc1ccc(-c2noc(=O)n2Cc2ccccc2F)cc1 | inconclusive: 8.07% | 
53 | O=C(CN(C(=O)CCC(=O)Nc1ccccn1)c1cccc(F)c1)NCc1ccc(F)cc1 | inconclusive: 20.1% | 
68 | Cc1ccc(C(=O)Nc2nnc(S(=O)(=O)N3CCOCC3)s2)cc1 | inconclusive: 29.1% | 
74 | Cc1cc(=O)[nH]c2c(C)c(N)ccc12 |  | inconclusive: 9.2 µM [rising, partial curve]
75 | COc1ccc(N(CC(=O)Nc2ccc(F)c(F)c2)S(=O)(=O)c2c(C)[nH]c(=O)[nH]c2=O)cc1 | inconclusive: 57.8% | 
